The supplement of paper PMC10849652
The other results are listed elsewhere or left out.

The chains behind the UniProt entries cited, without tags or fusion partners. Where a name states a change or a piece, a line headed by the entry shows the natural chain unless it says otherwise.
UniProt Q9BTE1, whole entry, looked up: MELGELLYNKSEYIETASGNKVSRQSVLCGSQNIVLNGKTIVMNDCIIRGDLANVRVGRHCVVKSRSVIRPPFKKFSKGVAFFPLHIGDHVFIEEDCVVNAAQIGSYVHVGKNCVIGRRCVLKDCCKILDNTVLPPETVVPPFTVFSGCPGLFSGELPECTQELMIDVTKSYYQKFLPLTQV
UniProt Q9H1C7: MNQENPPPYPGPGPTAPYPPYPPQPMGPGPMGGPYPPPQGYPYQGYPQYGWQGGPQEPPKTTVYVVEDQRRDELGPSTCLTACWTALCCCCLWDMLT
UniProt Q96GG9: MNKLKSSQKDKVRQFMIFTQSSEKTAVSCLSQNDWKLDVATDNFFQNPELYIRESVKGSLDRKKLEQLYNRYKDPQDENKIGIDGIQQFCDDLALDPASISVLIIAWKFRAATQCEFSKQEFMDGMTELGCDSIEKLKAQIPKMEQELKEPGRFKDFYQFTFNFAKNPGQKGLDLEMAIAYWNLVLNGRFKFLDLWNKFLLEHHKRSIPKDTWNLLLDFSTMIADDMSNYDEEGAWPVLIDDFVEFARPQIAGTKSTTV
UniProt Q58WW2: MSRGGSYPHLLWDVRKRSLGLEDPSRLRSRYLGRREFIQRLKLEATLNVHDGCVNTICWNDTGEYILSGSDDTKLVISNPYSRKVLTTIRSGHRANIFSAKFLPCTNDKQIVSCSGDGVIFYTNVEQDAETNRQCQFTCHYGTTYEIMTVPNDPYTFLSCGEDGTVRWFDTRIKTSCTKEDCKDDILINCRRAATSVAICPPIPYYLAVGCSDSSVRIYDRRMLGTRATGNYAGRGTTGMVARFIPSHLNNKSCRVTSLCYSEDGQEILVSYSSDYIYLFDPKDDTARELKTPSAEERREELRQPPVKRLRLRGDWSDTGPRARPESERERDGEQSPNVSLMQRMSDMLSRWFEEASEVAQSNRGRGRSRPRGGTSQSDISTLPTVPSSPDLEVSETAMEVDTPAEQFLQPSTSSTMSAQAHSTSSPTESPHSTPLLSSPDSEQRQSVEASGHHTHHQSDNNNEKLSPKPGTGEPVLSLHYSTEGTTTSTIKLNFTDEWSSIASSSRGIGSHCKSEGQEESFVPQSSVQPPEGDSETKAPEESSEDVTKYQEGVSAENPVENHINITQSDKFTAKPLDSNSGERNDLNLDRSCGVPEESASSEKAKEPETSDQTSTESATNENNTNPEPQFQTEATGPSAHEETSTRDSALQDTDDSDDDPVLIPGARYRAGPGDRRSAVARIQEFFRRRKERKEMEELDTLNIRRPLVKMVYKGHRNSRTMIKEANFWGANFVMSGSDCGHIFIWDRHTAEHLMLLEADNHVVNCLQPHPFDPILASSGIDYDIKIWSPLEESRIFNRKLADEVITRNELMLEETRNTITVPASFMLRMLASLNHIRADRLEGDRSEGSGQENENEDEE
UniProt P50461: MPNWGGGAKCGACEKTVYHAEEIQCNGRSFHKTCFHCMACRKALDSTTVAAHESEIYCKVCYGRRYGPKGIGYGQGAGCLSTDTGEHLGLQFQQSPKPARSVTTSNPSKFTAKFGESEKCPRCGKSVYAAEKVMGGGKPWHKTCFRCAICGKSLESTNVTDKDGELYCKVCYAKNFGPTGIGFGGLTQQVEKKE
UniProt Q8NA75: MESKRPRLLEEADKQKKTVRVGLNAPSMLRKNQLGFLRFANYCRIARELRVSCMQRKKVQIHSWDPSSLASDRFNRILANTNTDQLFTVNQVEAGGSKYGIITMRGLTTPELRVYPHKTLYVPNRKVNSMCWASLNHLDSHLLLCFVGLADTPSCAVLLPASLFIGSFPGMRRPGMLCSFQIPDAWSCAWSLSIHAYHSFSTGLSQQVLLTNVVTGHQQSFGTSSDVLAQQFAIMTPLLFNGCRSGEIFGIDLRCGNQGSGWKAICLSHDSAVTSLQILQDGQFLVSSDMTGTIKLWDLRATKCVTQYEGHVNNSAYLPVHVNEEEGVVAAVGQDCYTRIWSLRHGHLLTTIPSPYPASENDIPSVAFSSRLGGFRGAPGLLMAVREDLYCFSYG
UniProt Q8WUE5: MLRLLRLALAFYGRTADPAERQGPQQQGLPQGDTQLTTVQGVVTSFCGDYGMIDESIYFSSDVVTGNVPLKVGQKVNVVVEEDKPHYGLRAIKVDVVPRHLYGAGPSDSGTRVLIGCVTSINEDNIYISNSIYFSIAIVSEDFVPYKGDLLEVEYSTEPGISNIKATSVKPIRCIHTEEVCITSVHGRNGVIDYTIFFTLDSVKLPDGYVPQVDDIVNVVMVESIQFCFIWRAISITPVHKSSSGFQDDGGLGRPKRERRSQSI
UniProt Q9NV06: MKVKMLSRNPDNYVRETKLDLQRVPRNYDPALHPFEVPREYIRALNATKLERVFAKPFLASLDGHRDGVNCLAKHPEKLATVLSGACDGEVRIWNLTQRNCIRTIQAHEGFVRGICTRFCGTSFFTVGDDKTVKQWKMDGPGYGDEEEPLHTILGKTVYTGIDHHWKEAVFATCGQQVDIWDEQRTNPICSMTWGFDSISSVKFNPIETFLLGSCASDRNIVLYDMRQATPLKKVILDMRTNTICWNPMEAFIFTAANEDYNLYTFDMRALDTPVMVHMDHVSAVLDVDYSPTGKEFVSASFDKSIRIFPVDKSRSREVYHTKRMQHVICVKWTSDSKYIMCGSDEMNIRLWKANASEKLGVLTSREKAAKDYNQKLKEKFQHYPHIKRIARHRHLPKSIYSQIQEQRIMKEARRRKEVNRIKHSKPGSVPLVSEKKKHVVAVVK
UniProt Q16643: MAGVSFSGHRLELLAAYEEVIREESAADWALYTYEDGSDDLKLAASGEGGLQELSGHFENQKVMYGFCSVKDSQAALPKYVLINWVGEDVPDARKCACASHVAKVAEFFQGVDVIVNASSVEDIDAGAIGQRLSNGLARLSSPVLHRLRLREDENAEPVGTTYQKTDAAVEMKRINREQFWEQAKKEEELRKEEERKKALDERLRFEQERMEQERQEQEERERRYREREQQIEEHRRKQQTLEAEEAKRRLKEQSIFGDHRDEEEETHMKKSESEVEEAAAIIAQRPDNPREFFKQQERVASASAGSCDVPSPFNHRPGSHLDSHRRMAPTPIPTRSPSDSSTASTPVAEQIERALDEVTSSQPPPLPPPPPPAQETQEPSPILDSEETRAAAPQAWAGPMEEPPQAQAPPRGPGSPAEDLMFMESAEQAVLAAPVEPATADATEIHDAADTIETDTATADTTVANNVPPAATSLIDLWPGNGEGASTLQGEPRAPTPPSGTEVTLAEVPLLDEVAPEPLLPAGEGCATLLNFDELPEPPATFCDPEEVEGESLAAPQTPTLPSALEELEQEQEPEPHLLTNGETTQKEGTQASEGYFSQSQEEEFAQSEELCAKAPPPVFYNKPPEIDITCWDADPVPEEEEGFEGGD
UniProt Q9UER7, whole entry, looked up: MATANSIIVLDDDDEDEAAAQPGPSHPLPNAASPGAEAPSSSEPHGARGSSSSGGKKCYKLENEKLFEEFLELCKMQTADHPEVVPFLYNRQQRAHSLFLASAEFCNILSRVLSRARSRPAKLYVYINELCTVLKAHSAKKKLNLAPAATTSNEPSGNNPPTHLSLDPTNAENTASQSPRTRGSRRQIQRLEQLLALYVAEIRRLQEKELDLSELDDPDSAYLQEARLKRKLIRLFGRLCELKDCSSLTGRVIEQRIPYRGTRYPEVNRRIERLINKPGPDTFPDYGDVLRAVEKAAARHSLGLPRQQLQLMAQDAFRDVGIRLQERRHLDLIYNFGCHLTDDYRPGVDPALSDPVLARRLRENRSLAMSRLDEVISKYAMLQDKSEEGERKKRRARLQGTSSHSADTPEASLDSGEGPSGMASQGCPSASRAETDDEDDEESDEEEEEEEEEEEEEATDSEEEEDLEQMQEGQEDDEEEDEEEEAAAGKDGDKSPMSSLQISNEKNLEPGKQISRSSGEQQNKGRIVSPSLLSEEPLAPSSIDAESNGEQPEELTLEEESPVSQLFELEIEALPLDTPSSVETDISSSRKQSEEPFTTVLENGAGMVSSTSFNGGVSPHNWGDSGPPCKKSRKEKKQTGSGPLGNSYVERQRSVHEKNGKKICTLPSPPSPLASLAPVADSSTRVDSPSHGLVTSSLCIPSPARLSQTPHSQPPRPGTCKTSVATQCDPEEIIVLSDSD
UniProt O60716: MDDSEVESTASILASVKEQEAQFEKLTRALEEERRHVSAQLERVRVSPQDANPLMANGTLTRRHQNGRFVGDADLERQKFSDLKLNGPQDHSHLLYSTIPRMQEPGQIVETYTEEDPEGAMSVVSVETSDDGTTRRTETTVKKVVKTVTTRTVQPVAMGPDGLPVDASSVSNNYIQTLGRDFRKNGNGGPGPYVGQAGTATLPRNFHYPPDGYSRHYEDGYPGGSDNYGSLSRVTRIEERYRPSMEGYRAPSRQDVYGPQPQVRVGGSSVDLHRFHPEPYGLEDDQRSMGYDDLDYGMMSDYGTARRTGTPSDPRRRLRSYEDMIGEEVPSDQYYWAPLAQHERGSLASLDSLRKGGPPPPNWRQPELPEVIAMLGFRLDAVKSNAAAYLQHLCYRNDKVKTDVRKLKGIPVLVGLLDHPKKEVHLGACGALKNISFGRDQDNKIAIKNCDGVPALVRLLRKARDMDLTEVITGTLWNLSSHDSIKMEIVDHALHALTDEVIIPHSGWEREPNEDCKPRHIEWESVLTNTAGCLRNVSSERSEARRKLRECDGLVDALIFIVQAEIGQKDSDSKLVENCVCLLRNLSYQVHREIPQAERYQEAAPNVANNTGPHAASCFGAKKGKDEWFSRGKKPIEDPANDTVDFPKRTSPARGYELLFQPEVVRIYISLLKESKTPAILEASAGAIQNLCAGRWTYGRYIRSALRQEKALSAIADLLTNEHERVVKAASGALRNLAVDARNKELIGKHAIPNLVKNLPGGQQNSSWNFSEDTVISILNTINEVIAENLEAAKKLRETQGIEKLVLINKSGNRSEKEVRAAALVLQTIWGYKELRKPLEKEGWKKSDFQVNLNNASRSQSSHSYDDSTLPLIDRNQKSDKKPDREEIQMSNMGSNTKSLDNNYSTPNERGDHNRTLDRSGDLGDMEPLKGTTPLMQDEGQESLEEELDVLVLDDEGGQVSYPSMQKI
UniProt Q9H773: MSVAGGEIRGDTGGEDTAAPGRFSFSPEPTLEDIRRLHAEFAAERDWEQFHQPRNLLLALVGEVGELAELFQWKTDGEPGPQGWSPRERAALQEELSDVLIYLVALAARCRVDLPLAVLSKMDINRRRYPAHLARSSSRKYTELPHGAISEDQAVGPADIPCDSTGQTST
UniProt P98082: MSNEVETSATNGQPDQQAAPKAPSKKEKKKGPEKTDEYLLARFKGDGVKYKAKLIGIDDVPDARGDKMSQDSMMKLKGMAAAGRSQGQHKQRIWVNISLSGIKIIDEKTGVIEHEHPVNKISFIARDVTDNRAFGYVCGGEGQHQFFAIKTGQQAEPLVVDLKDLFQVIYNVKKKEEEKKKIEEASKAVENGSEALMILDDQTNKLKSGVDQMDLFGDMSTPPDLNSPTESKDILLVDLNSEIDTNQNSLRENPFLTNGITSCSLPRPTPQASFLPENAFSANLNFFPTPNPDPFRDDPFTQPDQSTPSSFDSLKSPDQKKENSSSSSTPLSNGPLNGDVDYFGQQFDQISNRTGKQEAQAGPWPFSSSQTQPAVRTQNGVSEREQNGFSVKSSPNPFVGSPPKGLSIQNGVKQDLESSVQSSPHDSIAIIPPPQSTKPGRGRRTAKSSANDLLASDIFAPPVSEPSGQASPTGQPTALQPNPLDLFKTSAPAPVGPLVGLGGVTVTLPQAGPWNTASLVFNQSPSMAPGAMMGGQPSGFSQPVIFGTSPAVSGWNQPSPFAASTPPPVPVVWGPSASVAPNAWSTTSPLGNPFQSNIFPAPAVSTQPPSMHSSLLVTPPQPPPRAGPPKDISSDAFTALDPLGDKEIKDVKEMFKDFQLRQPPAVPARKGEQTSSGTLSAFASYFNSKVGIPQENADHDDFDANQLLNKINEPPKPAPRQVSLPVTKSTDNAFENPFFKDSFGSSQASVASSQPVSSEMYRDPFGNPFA
UniProt Q16850: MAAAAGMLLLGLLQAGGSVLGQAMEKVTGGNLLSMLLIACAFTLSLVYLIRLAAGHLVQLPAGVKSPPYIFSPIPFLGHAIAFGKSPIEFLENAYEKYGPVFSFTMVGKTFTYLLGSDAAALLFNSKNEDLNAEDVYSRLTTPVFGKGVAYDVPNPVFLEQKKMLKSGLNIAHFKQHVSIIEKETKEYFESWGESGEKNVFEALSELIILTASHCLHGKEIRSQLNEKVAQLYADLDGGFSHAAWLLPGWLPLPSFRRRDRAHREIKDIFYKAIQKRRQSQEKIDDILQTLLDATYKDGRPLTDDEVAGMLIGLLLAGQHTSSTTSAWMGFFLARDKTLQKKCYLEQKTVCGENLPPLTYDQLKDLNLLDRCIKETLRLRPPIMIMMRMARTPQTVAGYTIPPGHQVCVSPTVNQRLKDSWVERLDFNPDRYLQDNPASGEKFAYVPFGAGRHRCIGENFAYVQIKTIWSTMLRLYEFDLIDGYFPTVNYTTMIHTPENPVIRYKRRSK

These targets were tested with CCN(CCCOc1ccc2c(Nc3cc(CC(=O)Nc4cccc(F)c4)[nH]n3)ncnc2c1)CCOP(=O)(O)O [barasertib] (assay: log2 fold change, soluble protein after heating vs DMSO (PISA); higher = thermal stabilisation; K562 cells, 10 uM, 30 min; active = over 0.2 and 3.5 SD of the protein, either way, in both replicates (recomputed)).
Summary of the method: (§1)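 Aliquots of K562 cells (2×10^6 cells/mL) treated with 10 μM compound for 30 min were heated for 3 min over 48°C-58°C. After pooling and extraction in PBS with 0.5% NP-40 at 4°C, soluble protein from a 21,000xg, 90 min spin was quantified by TMTpro 16plex LC-MS/MS with channel sums equalised. Thermal stability is expressed against control samples, from duplicates, as a log2 fold change.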
For DCTN5 (UniProt Q9BTE1), the log2 fold change was inactive: 0.027.
CTU1 (UniProt Q7Z7A3) was tested, and the log2 fold change was inactive: 0.
With CYSTM1 (UniProt Q9H1C7) the log2 fold change was inactive: 0.19.
For CYB5A (UniProt P00167), the log2 fold change was inactive: 0.036.
With DCUN1D1 (UniProt Q96GG9) the log2 fold change was inactive: 0.013.
For CYP46A1 (UniProt Q9Y6A2), the log2 fold change was inactive: 0.006.
For DCAF6 isoform 3 (UniProt Q58WW2), the log2 fold change was inactive: 0.008.
In the case of CSRP3 (UniProt P50461), the log2 fold change is reported as inactive: 0.14.
DCAF4L2 (UniProt Q8NA75) was tested, and the log2 fold change was inactive: 0.044.
For DBNL isoform 3 (UniProt Q9UJU6), the log2 fold change was inactive: 0.045.
CTSZ (UniProt Q9UBR2) was tested, and the log2 fold change was inactive: 0.027.
With DCTN1 isoform 4 (UniProt Q14203) the log2 fold change was inactive: 0.033.
CYBA (UniProt P13498) was tested, and the log2 fold change was inactive: -0.033.
With CT55 (UniProt Q8WUE5) the log2 fold change was inactive: 0.05.
DCAF13 (UniProt Q9NV06) was tested, and the log2 fold change was inactive: -0.084.
With CYB561A3 isoform 2 (UniProt Q8NBI2) the log2 fold change was inactive: -0.057.
With DBT (UniProt P11182) the log2 fold change was inactive: -0.033.
In the case of DBN1 isoform 3 (UniProt Q16643), the log2 fold change is reported as inactive: -0.038.
With CTSH (UniProt P09668) the log2 fold change was inactive: -0.019.
CTSC (UniProt P53634) was tested, and the log2 fold change was inactive: 0.023.
DAXX (UniProt Q9UER7) was tested, and the log2 fold change was inactive: -0.025.
With CTNND1 (UniProt O60716) the log2 fold change was inactive: -0.005.
With DCAF16 (UniProt Q9NXF7) the log2 fold change was inactive: 0.024.
For CSTF2 (UniProt P33240), the log2 fold change was inactive: -0.042.
CTSB (UniProt P07858) was tested, and the log2 fold change was inactive: 0.015.
With DAPK1 isoform 3 (UniProt P53355) the log2 fold change was inactive: -0.023.
For DCTPP1 (UniProt Q9H773), the log2 fold change was inactive: 0.059.
CWC25 (UniProt Q9NXE8) was tested, and the log2 fold change was inactive: 0.052.
With CYP2S1 isoform 2 (UniProt Q96SQ9) the log2 fold change was inactive: 0.051.
For DAB2 (UniProt P98082), the log2 fold change was inactive: 0.072.
For CYP51A1 (UniProt Q16850), the log2 fold change was inactive: 0.01.
For CTSA (UniProt P10619), the log2 fold change was inactive: 0.
CUX1 isoform 3 (UniProt P39880) was tested, and the log2 fold change was inactive: 0.013.

Each target was assayed with CC[C@@H]1C(=O)N(C)c2cnc(Nc3ccc(C(=O)NC4CCN(C)CC4)cc3OC)nc2N1C1CCCC1 in the same assay as above.
Summary of the method: as §1
DCTN5 (UniProt Q9BTE1) was tested, and the log2 fold change was inactive: 0.02.
In the case of CTU1 (UniProt Q7Z7A3), the log2 fold change is reported as inactive: -0.052.
For CYSTM1 (UniProt Q9H1C7), the log2 fold change was inactive: -0.128.
In the case of DCAF4 (UniProt Q8WV16), the log2 fold change is reported as inactive: 0.03.
CYB5A (UniProt P00167) was tested, and the log2 fold change was inactive: -0.023.
In the case of DCUN1D1 (UniProt Q96GG9), the log2 fold change is reported as inactive: -0.1.
For DCAF6 isoform 3 (UniProt Q58WW2), the log2 fold change was inactive: 0.077.
CSRP3 (UniProt P50461) was tested, and the log2 fold change was inactive: 0.085.
For DCAF4L2 (UniProt Q8NA75), the log2 fold change was inactive: 0.233.
For CTR9 (UniProt Q6PD62), the log2 fold change was inactive: -0.162.
For DBNL isoform 3 (UniProt Q9UJU6), the log2 fold change was inactive: -0.143.
CTSZ (UniProt Q9UBR2) was tested, and the log2 fold change was active: -0.954.
In the case of DCTN1 isoform 4 (UniProt Q14203), the log2 fold change is reported as inactive: 0.01.
In the case of CTSS (UniProt P25774), the log2 fold change is reported as inactive: -0.027.
For CYBA (UniProt P13498), the log2 fold change was inactive: -0.091.
CT55 (UniProt Q8WUE5) was tested, and the log2 fold change was inactive: -0.024.
For DCAF13 (UniProt Q9NV06), the log2 fold change was inactive: 0.134.
With CYB561A3 isoform 2 (UniProt Q8NBI2) the log2 fold change was inactive: -0.058.
With DBT (UniProt P11182) the log2 fold change was inactive: 0.068.
For CWF19L2 (UniProt Q2TBE0), the log2 fold change was inactive: -0.051.
With DBN1 isoform 3 (UniProt Q16643) the log2 fold change was inactive: 0.026.
With CTSH (UniProt P09668) the log2 fold change was inactive: -0.087.
CTSC (UniProt P53634) was tested, and the log2 fold change was active: -0.419.
DAXX (UniProt Q9UER7) was tested, and the log2 fold change was inactive: 0.018.
With CTNND1 (UniProt O60716) the log2 fold change was inactive: 0.044.
For DCAF16 (UniProt Q9NXF7), the log2 fold change was inactive: -0.164.
With CSTF2 (UniProt P33240) the log2 fold change was inactive: 0.06.
In the case of CTSB (UniProt P07858), the log2 fold change is reported as active: -1.16.
DCTPP1 (UniProt Q9H773) was tested, and the log2 fold change was inactive: 0.007.
With CWC25 (UniProt Q9NXE8) the log2 fold change was inactive: 0.212.
For DAB2 (UniProt P98082), the log2 fold change was inactive: -0.204.
For CYP51A1 (UniProt Q16850), the log2 fold change was inactive: 0.019.
For CTSA (UniProt P10619), the log2 fold change was active: -1.24.
In the case of CUX1 isoform 3 (UniProt P39880), the log2 fold change is reported as inactive: 0.008.

What follows are targets tested with CC[C@@H]1C(=O)N(C)c2cnc(Nc3ccc(C(=O)N[C@H]4CC[C@H](N5CCN(CC6CC6)CC5)CC4)cc3OC)nc2N1C(C)C [volasertib] in the same assay as above.
Summary of the method: as §1
In the case of DCTN5 (UniProt Q9BTE1), the log2 fold change is reported as inactive: -0.004.
With CTU1 (UniProt Q7Z7A3) the log2 fold change was inactive: -0.117.
CYSTM1 (UniProt Q9H1C7) was tested, and the log2 fold change was inactive: 0.434.
For CYB5A (UniProt P00167), the log2 fold change was inactive: -0.007.
In the case of DCUN1D1 (UniProt Q96GG9), the log2 fold change is reported as active: -0.276.
CYP46A1 (UniProt Q9Y6A2) was tested, and the log2 fold change was inactive: 0.114.
In the case of DCAF6 isoform 3 (UniProt Q58WW2), the log2 fold change is reported as inactive: 0.05.
For CSRP3 (UniProt P50461), the log2 fold change was inactive: 0.06.
In the case of DCAF4L2 (UniProt Q8NA75), the log2 fold change is reported as inactive: -0.001.
For CTR9 (UniProt Q6PD62), the log2 fold change was inactive: -1.12.
With DBNL isoform 3 (UniProt Q9UJU6) the log2 fold change was active: -0.367.
For CTSZ (UniProt Q9UBR2), the log2 fold change was active: -1.54.
DCTN1 isoform 4 (UniProt Q14203) was tested, and the log2 fold change was inactive: -0.1.
In the case of CYBA (UniProt P13498), the log2 fold change is reported as inactive: -0.125.
In the case of CT55 (UniProt Q8WUE5), the log2 fold change is reported as inactive: -0.187.
For DCAF13 (UniProt Q9NV06), the log2 fold change was inactive: 0.26.
For CYB561A3 isoform 2 (UniProt Q8NBI2), the log2 fold change was inactive: 0.103.
With DBT (UniProt P11182) the log2 fold change was inactive: 0.009.
CWF19L2 (UniProt Q2TBE0) was tested, and the log2 fold change was inactive: -0.107.
With DBN1 isoform 3 (UniProt Q16643) the log2 fold change was inactive: -0.189.
For CTSH (UniProt P09668), the log2 fold change was inactive: -0.06.
In the case of DCP2 (UniProt Q8IU60), the log2 fold change is reported as inactive: -0.153.
With CTSC (UniProt P53634) the log2 fold change was active: -0.946.
DAXX (UniProt Q9UER7) was tested, and the log2 fold change was inactive: -0.006.
In the case of CTNND1 (UniProt O60716), the log2 fold change is reported as inactive: 0.066.
For DCAF16 (UniProt Q9NXF7), the log2 fold change was active: -0.532.
For CSTF2 (UniProt P33240), the log2 fold change was active: 0.233.
For CTSB (UniProt P07858), the log2 fold change was active: -1.72.
In the case of DAPK1 isoform 3 (UniProt P53355), the log2 fold change is reported as inactive: -0.1.
With DCTPP1 (UniProt Q9H773) the log2 fold change was inactive: -0.016.
For DAB2 (UniProt P98082), the log2 fold change was active: -0.289.
In the case of CYP51A1 (UniProt Q16850), the log2 fold change is reported as inactive: 0.132.
For CTSA (UniProt P10619), the log2 fold change was active: -1.57.
For CUX1 isoform 3 (UniProt P39880), the log2 fold change was inactive: -0.153.
